The values that follow come from PubChem BioAssay AID2685 (National Center for Advancing Translational Sciences (NCATS), 2010).

The list shows a part of the results. Shown are side measurements of this screen, not its main read-out; they come without a call. The list favours compounds with an active or inconclusive main result. Words in brackets tell the shape of the fitted curve; partial curves, single points and poor fits give uncertain potencies.

A word on the AC50: it is the concentration at which the activity in the assay is half-maximal. Read a high AC50 as activity only at high concentration.

This experiment is described as follows: qHTS Assay for Lipid Storage Modulators in Drosophila S3 Cells.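 For cell number change: cells counted by Cell Tracker Red CMTPX staining in the red channel.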 The note with it: BODIPY lipid droplet fluorescence, 18-24 h; for cell number change: measured here: cell count max response, cells fed with added oleic acid. The method in brief: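 Laser-scanning cytometry quantifies lipid droplet accumulation (500–530 nm total intensity; droplet/cell object ratio) in oleic acid-fed (400 uM added) Drosophila S3 cells treated with a concentration series. 20 uM Triacsin C defined 100% inhibition.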
For orientation: qHTS replaces the single test concentration by a dilution series.

Where [1] appears, read: measured here: cell number channel AC50, cells fed with added oleic acid.
[2] abbreviates: measured here: lipid fluorescence (Fed channel) AC50, cells fed with added oleic acid.

Take `CC(C)Cc1nc2sc3c(=O)[nH]cnc3c2c2c1CCC2`: the cell number change was -15.7%.

For the molecule `O=C(O)C1C2C=CC3(CN(CC(O)COc4ccccc4)C(=O)C13)O2` (stereo not given), the cell number change is -67.6%. The AC50 under setting [1] was 29.1 µM [falling, single point]. Also, the AC50 under setting [2] is 18.4 µM [falling, single point].

On to `O=C1CCCCC/C1=N/Nc1ccc(OCc2ccccc2)cc1`, for which the cell number change is -13.8%. Under setting [2], the AC50 was 10.3 µM [falling, single point].

Regarding `COc1cccc(C2c3c(-c4ccccc4O)n[nH]c3C(=O)N2Cc2ccco2)c1` (stereo not given), the cell number change was -7.87%. The AC50 under setting [2] is 0.461 µM [rising, single point].

Turning to `CCO[C@@H]1OC(C(=O)O)=C[C@H](c2coc3ccccc3c2=O)[C@H]1CCCO`, the cell number change is -5.83%. Further, the AC50 under setting [2] is 29.1 µM [falling, single point].

As to `Cn1c(=S)n(/N=C/c2cccs2)c2ccccc21`, the cell number change stood at 10.4%.

For `O=C1C2CC=CCC2C(=O)N1c1ccc(NCCc2ccccc2F)c([N+](=O)[O-])c1` (stereo not given), the cell number change amounted to 26.5%. Further, the AC50 under setting [2] was 2.06 µM [rising, full curve].

Turning to `Cc1nc(=O)c(-c2ccccc2)c(C)n1-c1ccc(S(N)(=O)=O)cc1`, the cell number change is -8.32%. Further, the AC50 under setting [2] is 4.61 µM [falling, full curve, poor fit].

Take `CCOc1ccccc1C(=O)NC(C)c1ccc2c(c1)OCO2` (stereo not given): the cell number change turned out to be 49.2%. Moreover, under setting [1], the AC50 is 1.3 µM [rising, full curve, poor fit]. Moreover, under setting [2], the AC50 is 1.16 µM [rising, full curve].

With `Cc1cccc(NC(=O)c2ccc(Cl)c(S(=O)(=O)N3CCCCC3)c2)n1`, the AC50 under setting [2] is 5.8 µM [rising, single point].

With `Cc1ccc(C(=O)NCC(=O)N(C)Cc2ccc(Cl)cc2Cl)s1`, the cell number change came out at 11.6%. Besides, the AC50 under setting [2] is 4.11 µM [rising, single point].

Regarding `O=C(N/N=C/c1c(O)n(-c2ccccc2Cl)c(=O)c2ccccc12)C1COc2ccccc2O1` (stereo not given), the cell number change is 2.1%. The half-maximal activity concentration (AC50) under setting [2] is 29.1 µM [falling, single point].

Turning to `CN(C)S(=O)(=O)c1ccc2c(c1)nc(CCC(=O)Nc1ccc3c(c1)OCO3)n2C`, the cell number change was -9.78%. Under setting [1], the AC50 was 0.82 µM [falling, full curve, poor fit]. The AC50 under setting [2] is 0.164 µM [rising, partial curve, poor fit].

As for `COc1ccccc1CCNC(=O)c1cc(COc2cccc(C(F)(F)F)c2)on1`, the cell number change was -6.84%.

On to `CC(C)CN(C(=O)CSc1nncn1C)C1CCS(=O)(=O)C1` (stereo not given), for which the cell number change is -7.37%. Besides, the AC50 under setting [2] was 32.6 µM [rising, partial curve, poor fit].

Regarding `COc1ccc(Nc2nc(N3CCN(C)CC3)nc3ccccc23)c(OC)c1`, the cell number change amounted to 21.3%.

As for `NC(N)=NS(=O)(=O)c1ccc(NC(=S)NC(=O)/C=C/c2ccco2)cc1`, the cell number change is -17.3%. Also, under setting [2], the AC50 was 0.146 µM [falling, full curve, poor fit].

As for `CCOc1cc(S(=O)(=O)NCc2ccncc2)ccc1Cl`, the cell number change was -38.1%. Besides, under setting [1], the AC50 is 3.16 µM [falling, full curve]. Also, the AC50 under setting [2] was 2.24 µM [falling, partial curve, poor fit].

Turning to `COc1ccc(S(=O)(=O)N2CCC(C(=O)N3CCN(C)CC3)CC2)cc1Cl`, the AC50 under setting [2] is 0.259 µM [rising, partial curve, poor fit].

Consider `CN(CCc1cnn(C)c1)Cc1nc(Cc2ccccc2)no1`, for which the cell number change was 13.8%. Further, the AC50 under setting [2] was 25.9 µM [rising, single point].

As to `CCC(C)NC(=O)c1ccccc1NC(=O)/C(=C/c1ccc(OC)cc1)c1ccccc1` (stereo not given), the cell number change is -2.55%. The concentration at half-maximal activity (AC50) under setting [2] was 18.4 µM [falling, single point].

On to `CCOC(=O)Cn1c(=O)oc2cc(S(=O)(=O)NCc3cccs3)ccc21`, for which the cell number change was -5.51%. In addition, the AC50 under setting [2] was 29.1 µM [falling, single point].

As for `COc1ccc(NC(=O)CSc2nc3ccc(Nc4nc(N5CCOCC5)nc(N5CCOCC5)n4)cc3s2)cc1`, the cell number change came to 194%. The AC50 under setting [1] is 25.9 µM [rising, single point].

Turning to `Cc1ccccc1C(=O)NC(=S)Nc1ccccc1[N+](=O)[O-]`, the cell number change came to 55.8%. The AC50 under setting [2] is 0.112 µM [falling, full curve, poor fit].

Take `O=C(NCCCO)c1ccc2nc(-c3ccco3)c(-c3ccco3)nc2c1`: the half-maximal activity concentration (AC50) under setting [1] is 0.326 µM [rising, full curve, poor fit].

`CC(SCc1ccc(C(=O)O)o1)c1ccc(C(=O)O)o1` (stereo not given): the cell number change was -11.6%. For the same molecule, the AC50 under setting [2] is 29.1 µM [falling, single point].

On to `COc1ccc(C(C)(C)C)cc1NC(=O)C1CC=CCC1C(=O)O` (stereo not given), for which the cell number change was found to be 2.74%. Further, the AC50 under setting [2] was 3.26 µM [falling, full curve, poor fit].

Consider `O=C(CCCO)NC1Cc2ccccc2C1`, for which the cell number change is -8.99%. For the same molecule, the AC50 under setting [2] was 0.731 µM [falling, full curve, poor fit].

For the molecule `O=C(CN1CCCCCC1)Nc1ccc(Cl)cc1F`, the cell number change came to 21.1%. Moreover, the half-maximal activity concentration (AC50) under setting [1] is 0.103 µM [rising, full curve, poor fit].

Regarding `COc1cccc(/C=N/NC(=O)c2[nH]c(C)c(C(=O)N/N=C/c3cccc(OC)c3)c2C)c1`, the cell number change worked out at 91%. Besides, the AC50 under setting [1] was 29.1 µM [rising, single point]. Besides, under setting [2], the AC50 was 20.6 µM [rising, single point].

`CCN(CC(=O)NCc1ccc(F)cc1)CC(=O)Nc1ccc(S(=O)(=O)N2CCCC2)cc1`: the concentration at half-maximal activity (AC50) under setting [2] was 0.731 µM [rising, single point].

Turning to `O=C(NCCSCc1c(F)cccc1Cl)c1ccc(CN2CCOCC2)cc1`, the cell number change amounted to 7.74%. For the same molecule, the AC50 under setting [2] was 5.17 µM [rising, single point].

`COP(=O)(c1ccc(N(C)C)cc1)C(O)c1ccccc1` (stereo not given): the cell number change is 15.3%. The AC50 under setting [2] was 0.58 µM [falling, single point].

Consider `CCC1CCCCN1CC(O)COCc1cccc(OC)c1` (stereo not given), for which the cell number change was found to be 15.4%.

For `CCC(C)(C)n1nnnc1C(c1cc2cc(OC)ccc2[nH]c1=O)N1CCc2ccccc21` (stereo not given), the AC50 under setting [1] is 4.11 µM [rising, single point].

`CN(C)/N=C/c1ccc(P(c2ccc(/C=N/N(C)C)o2)c2ccc(/C=N/N(C)C)o2)o1`: the cell number change came out at 41.4%. The AC50 under setting [1] was 0.651 µM [rising, full curve, poor fit].

For `CCC/C(=N\NC(=O)CCC(=O)NCc1ccccc1)c1ccccc1`, the cell number change was -20.9%. Moreover, the AC50 under setting [1] is 0.00517 µM [falling, full curve, poor fit].

For the molecule `C=CCN1C(=O)c2ccc(C(=O)N(CCC)CC(=O)Nc3ccccc3C)cc2C1=O`, the cell number change was 22%.

On to `COc1ccc(CCNC(=O)c2n[nH]c3ccccc23)cc1`, for which the cell number change turned out to be 57.3%. Under setting [1], the AC50 was 2.59 µM [rising, full curve]. Under setting [2], the concentration at half-maximal activity (AC50) is 2.91 µM [rising, full curve].

With `COc1ccc(S(=O)(=O)Nc2ccc(N3CCOCC3)cc2)cc1Br`, the cell number change amounted to 43.2%. Moreover, the AC50 under setting [1] was 3.26 µM [rising, partial curve]. In addition, the AC50 under setting [2] was 16.4 µM [rising, partial curve].

For `Cc1cccc(Nc2nnc(SCC3CCCCO3)s2)c1` (stereo not given), the cell number change was -14.3%. In addition, the AC50 under setting [2] was 0.00461 µM [falling, full curve, poor fit].

Regarding `COc1ccccc1CNC(=O)COC(=O)c1cccc(S(=O)(=O)N2CCCC2)c1`, the cell number change stood at 24.9%.

Take `Cc1cccnc1NC(=O)c1ccc(Cl)c(S(=O)(=O)N2CCCC2)c1`: the cell number change was determined as 18.4%. Under setting [2], the AC50 was 23.1 µM [rising, single point].

Turning to `CC(CNC(=O)CCc1nnc2ccc(N3CCC4(CC3)OCCO4)nn12)c1ccccc1` (stereo not given), the cell number change was -31.7%. In addition, under setting [1], the AC50 is 2.31 µM [falling, partial curve].

Regarding `Cn1nnnc1SCC(=O)Nc1ccc(N2CCOCC2)cc1`, the cell number change was -27.5%. Further, the AC50 under setting [2] was 5.8 µM [falling, full curve, poor fit].

In the case of `CCOCCn1c(SCc2c(F)cccc2Cl)nc2c1c(=O)[nH]c(=O)n2C`, the cell number change turned out to be 10.8%. Also, under setting [2], the AC50 is 4.11 µM [rising, full curve].

In the case of `O=C(CCN1C(=O)c2ccccc2S1(=O)=O)N1CCN(c2ccccc2)CC1`, the cell number change was -27.2%. The AC50 under setting [2] is 29.1 µM [falling, single point].

Consider `CCN(CC(=O)Nc1c(F)cccc1F)C(=O)/C=C/c1ccc(C)o1`, for which the cell number change was determined as 22.2%. Further, under setting [2], the AC50 is 6.51 µM [rising, partial curve].

Take `O=S(=O)(c1ccc(Br)cc1)N1CCC2(CC1)OCCO2`: the cell number change was 12.9%. Further, the AC50 under setting [2] was 7.31 µM [rising, partial curve, poor fit].

Take `OC(CNC1CCCC1)COc1ccc(-c2ccccc2)cc1` (stereo not given): the cell number change amounted to 84.3%.

As for `CCN=c1scc(C)n1/N=C/c1cc(Br)c(O)c(Br)c1`, the cell number change amounted to 24.3%. For the same molecule, the AC50 under setting [1] was 0.0517 µM [falling, full curve, poor fit]. Also, the half-maximal activity concentration (AC50) under setting [2] was 0.116 µM [falling, full curve, poor fit].

`CCC1c2ccc(C)n2CCN1C(=O)Nc1ccccc1C(=O)OC` (stereo not given): under setting [2], the AC50 is 1.16 µM [falling, full curve, poor fit].

In the case of `COC(CNC(=O)c1c[nH]c2ccc(S(=O)(=O)N(C)c3ccc(F)cc3)cc2c1=O)OC`, the cell number change was -6.34%.

Take `CCN1CCN(C(=S)NCC2CCCO2)CC1` (stereo not given): the cell number change was -31.9%. In addition, the AC50 under setting [1] is 20.6 µM [falling, single point]. Besides, under setting [2], the AC50 is 18.4 µM [falling, single point].

Take `C=CCOC(=O)C1=C(C)OC(N)=C(C#N)C1c1ccco1` (stereo not given): the cell number change was found to be 29.7%.

As for `Cc1cc(Oc2ccccc2)nc(SCC(=O)Nc2ccc(Cl)cc2Cl)n1`, the cell number change came out at 86.4%. Besides, the AC50 under setting [1] is 23.1 µM [rising, partial curve]. Also, the AC50 under setting [2] is 2.91 µM [rising, partial curve].

As to `O=C(CCc1nnc(-c2ccccc2)o1)NCc1c(F)cccc1F`, the cell number change was -34.3%. Besides, under setting [1], the AC50 is 0.92 µM [falling, full curve]. The AC50 under setting [2] is 1.46 µM [falling, partial curve].

As for `COc1cccc(C(=O)Nc2ccc3c(C)cc(=O)oc3c2)c1`, the cell number change is -8.42%. The AC50 under setting [1] was 0.0058 µM [rising, full curve, poor fit]. Moreover, under setting [2], the AC50 is 29.1 µM [falling, single point].

For the molecule `O=C1NC(=O)C(c2ccccc2)(c2ccc(O)cc2)N1` (stereo not given), the cell number change is -18.3%.

`O=C(O)C1C2C=CC(C2)C1C(=O)OCC1CCCO1` (stereo not given): the cell number change is 37.4%. Moreover, under setting [1], the half-maximal activity concentration (AC50) is 29.1 µM [rising, single point].
